# From patent publication US20250304621A1, “POLYPEPTIDE FOR SPECIFICALLY BLOCKING BINDING OF ACVR1C TO GREM1 AND USE THEREOF” (The Seventh Affiliated Hospital, Sun Yat-Sen University, priority 2024, published 2025)
# No constants are given. Whether binding was seen depends on the method and setting. Binding seen in cells or lysates may run through a third protein.
# Molecular target: T1, ACVR1C (activin receptor type-1C) (human) (UniProt Q8NER5)
# T1 sequence (looked up): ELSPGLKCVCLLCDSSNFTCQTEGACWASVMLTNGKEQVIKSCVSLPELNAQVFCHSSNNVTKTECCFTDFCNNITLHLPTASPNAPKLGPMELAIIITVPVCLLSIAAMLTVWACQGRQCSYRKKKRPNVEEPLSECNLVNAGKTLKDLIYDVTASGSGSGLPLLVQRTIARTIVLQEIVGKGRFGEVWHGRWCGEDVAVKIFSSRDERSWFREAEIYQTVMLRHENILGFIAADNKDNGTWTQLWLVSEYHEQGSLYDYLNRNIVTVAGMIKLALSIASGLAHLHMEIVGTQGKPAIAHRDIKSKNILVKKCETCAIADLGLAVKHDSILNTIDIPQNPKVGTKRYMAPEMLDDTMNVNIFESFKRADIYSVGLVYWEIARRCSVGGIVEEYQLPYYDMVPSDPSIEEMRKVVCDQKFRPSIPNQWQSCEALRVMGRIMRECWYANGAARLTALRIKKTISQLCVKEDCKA
# Assay: co-IP in HCT116 cells
substance,measurement,value
truncated GREM1 lacking amino acids 100-157 (G3) (ligand),binding,no binding
